Measured data: PubChem BioAssay AID1053208 (Peter MacCallum Cancer Centre, 2014)

- Assay: 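Genes whose silencing cuts survival of bone tumour cells only with doxorubicin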 (primary screen)
- Cell system: mouse osteosarcoma cells, early-passage culture from an engineered mouse model of fibroblastic bone tumour
- Reagent: siRNA pool against mouse genes, 40 nM
- Time to read-out: about 120 h (48 h before drug, then 72 h with drug)
- Challenge: doxorubicin 100 nM for 72 h, roughly 30-40% inhibitory dose
- Measurement: 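Viability read as ATP luminescence after 72 h of 100 nM doxorubicin or none, duplicate wells averaged, scaled to non-targeting siRNA, then expressed as robust z-scores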
- Scale: viability z-score with doxorubicin: higher = more viable cells under doxorubicin; viability z-score without drug: higher = more viable cells with knock-down alone
- Active means: 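Called active if knock-down leaves viability unchanged without drug (z within -2 to 2) but lowers it with doxorubicin (z at or under -2)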
In all, the deposit lists about 17,000 reagents; this is an unselected part. Of all reagents, 788 (4.7%) are marked active. 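Calls rest on z-score classes alone; an extra cut-off of viability at most 70% of control was not applied to them.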 Reagents against one gene are numbered here. Not all columns of the deposit are shown.

What is on record for Pcdhb7?
combined z-score class: no change with or without drug; viability z-score with doxorubicin: -1.12; viability z-score without drug: -0.51; outcome: inactive

With Or9k2, how do the results read?
combined z-score class: no change with or without drug; viability z-score with doxorubicin: -0.22; viability z-score without drug: 0; outcome: inactive

For Kctd6, how do the results read?
combined z-score class: no change with or without drug; viability z-score with doxorubicin: -1.57; viability z-score without drug: -0.51; outcome: inactive

What did the screen give for Ntn3?
combined z-score class: no change with or without drug; viability z-score with doxorubicin: 0; viability z-score without drug: -0.84; outcome: inactive

For Tecr, what does the deposit list?
combined z-score class: no change with or without drug; viability z-score with doxorubicin: 0.22; viability z-score without drug: 0.51; outcome: inactive

For Csn2, what was measured?
combined z-score class: no change with or without drug; viability z-score with doxorubicin: 0.56; viability z-score without drug: 0.84; outcome: inactive

What is on record for H2-K1 #1?
combined z-score class: no change with or without drug; viability z-score with doxorubicin: 1.12; viability z-score without drug: 0.51; outcome: inactive

With H2-K1 #2, how do the results read?
combined z-score class: no change with or without drug; viability z-score with doxorubicin: -0.67; viability z-score without drug: -1.35; outcome: inactive

With Sprr2h, how do the results read?
combined z-score class: no change with or without drug; viability z-score with doxorubicin: 0.56; viability z-score without drug: 1.69; outcome: inactive

What did the screen give for Cdc34?
combined z-score class: no change with or without drug; viability z-score with doxorubicin: 1.57; viability z-score without drug: 0.34; outcome: inactive

For Lce1m, what does the deposit list?
combined z-score class: no change with or without drug; viability z-score with doxorubicin: 1.8; viability z-score without drug: -0.34; outcome: inactive

With Zfp418, what was measured?
combined z-score class: no change with or without drug; viability z-score with doxorubicin: -1.01; viability z-score without drug: -1.35; outcome: inactive

For Rprd1a, how do the results read?
combined z-score class: no change with or without drug; viability z-score with doxorubicin: 0.79; viability z-score without drug: -0.51; outcome: inactive

Copied from the list.
Lce1m, combined z-score class → no change with or without drug
Csn2, outcome → inactive

More results follow:
Which result is listed for Birc2?
combined z-score class: high cell count with doxorubicin only; viability z-score with doxorubicin: 2.14; viability z-score without drug: 0.67; outcome: inactive

What did the screen give for Rbm4?
combined z-score class: no change with or without drug; viability z-score with doxorubicin: 0.9; viability z-score without drug: 1.69; outcome: inactive

With Or8k32, how do the results read?
combined z-score class: no change with or without drug; viability z-score with doxorubicin: 0.34; viability z-score without drug: -0.51; outcome: inactive

For Edn1, what was measured?
combined z-score class: no change with or without drug; viability z-score with doxorubicin: 0.56; viability z-score without drug: 0.17; outcome: inactive

What did the screen give for Chmp1b?
combined z-score class: no change with or without drug; viability z-score with doxorubicin: 1.12; viability z-score without drug: 1.69; outcome: inactive

For Mdfic, what was measured?
combined z-score class: no change with or without drug; viability z-score with doxorubicin: -0.79; viability z-score without drug: 0; outcome: inactive

For Gkap1, what was measured?
combined z-score class: no change with or without drug; viability z-score with doxorubicin: 0.34; viability z-score without drug: 0.17; outcome: inactive

What is on record for Hikeshi?
combined z-score class: high cell count with and without drug; viability z-score with doxorubicin: 2.25; viability z-score without drug: 2.19; outcome: inactive

With Sharpin, what does the deposit list?
combined z-score class: no change with or without drug; viability z-score with doxorubicin: -1.12; viability z-score without drug: -0.17; outcome: inactive

Which result is listed for Prdx6?
combined z-score class: no change with or without drug; viability z-score with doxorubicin: 0.67; viability z-score without drug: 0.34; outcome: inactive

For Dtx1, how do the results read?
combined z-score class: no change with or without drug; viability z-score with doxorubicin: 0.45; viability z-score without drug: 0; outcome: inactive

What is on record for Orai3?
combined z-score class: no change with or without drug; viability z-score with doxorubicin: -0.22; viability z-score without drug: 0.51; outcome: inactive

For Ufc1, what was measured?
combined z-score class: no change with or without drug; viability z-score with doxorubicin: -1.35; viability z-score without drug: 0.17; outcome: inactive

What did the screen give for Wdr72?
combined z-score class: no change with or without drug; viability z-score with doxorubicin: 1.12; viability z-score without drug: 1.52; outcome: inactive

What is on record for Gimap3?
combined z-score class: no change with or without drug; viability z-score with doxorubicin: -0.56; viability z-score without drug: -0.17; outcome: inactive
